Experimental data reported in PubChem BioAssay AID493014 (National Center for Advancing Translational Sciences (NCATS), 2011).
This is one part of the list. These are further read-outs of the screen, such as a control signal, another cell line or another target. No call is given for them. Compounds called inactive in the main read-out are mostly missing here. The note in brackets gives the kind of curve behind each potency; many fits are weak.

Experiment: qHTS Assay to Find Inhibitors of Chronic Active B-Cell Receptor Signaling
Settings: ABC-DLBCL IkBa-CBG/CBR reporter, luminescence ratio (green luciferase fused to IkBa over red control in TMD8 lymphoma cells), 4 h
Summary of the method: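 Doxycycline induced both beetle luciferases in TMD8 lymphoma cells; IKK-driven degradation limits the IkappaBalpha-fused green signal, while red luminescence normalises for cell number and nonspecific effects. Compounds tested up to 46 uM, 4 hrs.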

[1] = measured here: CBR red luminescence, cell number
[2] = measured here: IkBa-CBG green luminescence

| SMILES | AC50 [1] | AC50 [2] |
| --- | --- | --- |
| O=C(O)Cn1nc2ccccc2n1 | 2.06 µM [rising, partial curve, poor fit] |  |
| Cc1nn(CCC(=O)NNC(=S)Nc2ccc(F)cc2)c(C)c1Br | 32.6 µM [rising, single point] |  |
| O=C(O)c1ccccc1Sc1c([N+](=O)[O-])cc(C(F)(F)F)cc1[N+](=O)[O-] | 20 µM [falling, partial curve, poor fit] |  |
| COCCNC(=O)c1cc(-c2cccc(OC)c2)on1 | 20 µM [falling, single point] |  |
| CN(C)CCNC(=O)/C=C/c1cn(-c2ccccc2)nc1-c1cc2ccccc2oc1=O | 35.5 µM [falling, single point] |  |
| C/C(=N\NC(N)=S)C1(C)CC2(CC(C)(C)OC2=O)C(=O)O1 (centres undefined) | 3.16 µM [rising, partial curve] |  |
| CCc1cccc(OCCn2nc(C(=O)O)c3ccccc3c2=O)c1 | 5.62 µM [rising, single point] |  |
| CN(c1ccc(C(=O)Nc2ccc(Cl)cn2)cc1)S(=O)(=O)c1ccccc1 | 7.94 µM [falling, partial curve, poor fit] |  |
| c1ccc(C2=Nn3c(nnc3-c3cc(-c4ccccc4)n[nH]3)SC2)cc1 |  | 13 µM [falling, partial curve, poor fit] |
| COc1ccc(/C=C/c2cc(C(F)(F)F)on2)cc1 | 35.5 µM [rising, partial curve, poor fit] |  |
| CCOC(=O)CC(=O)N/N=C/c1c(N)n(C)c(=O)n(C)c1=O | 7.08 µM [falling, full curve] |  |
| COc1cc(OC)c(OC)cc1/C=C/c1nc2cc3ccccc3cc2c(=O)n1-c1ccccc1Br | 5.62 µM [falling, full curve] |  |
| NNC(=O)c1ccc(OCC2CC(c3ccc(Cl)cc3)=NO2)cc1 (centres undefined) | 1.12 µM [falling, partial curve, poor fit] |  |
| O=C(N/N=C/c1cc(Br)c(Br)o1)c1ccc2c(c1)OCCO2 | 11.2 µM [falling, partial curve, poor fit] |  |
| COc1ccc(-n2cc(CNCC3CC(=O)N(C4CC4)C3)c(-c3ccccc3Cl)n2)cc1 (centres undefined) | 3.55 µM [rising, single point] |  |
| COc1ccc(OC)c(-n2c(-c3cccc(O)c3)n[nH]c2=S)c1 | 20.6 µM [rising, single point] |  |
| CN1CCN(C(=O)c2cc(-c3ccco3)on2)CC1 | 6.51 µM [rising, partial curve, poor fit] |  |
| O=C(NCc1ccco1)C1CCN(C(=O)c2cc3sccc3n2Cc2ccc(Cl)cc2)CC1 | 13 µM [falling, partial curve, poor fit] |  |
| Cn1c(=O)cc(SCC(=O)Nc2ccc3c(c2)OCO3)c2ccccc21 | 10 µM [rising, partial curve, poor fit] |  |
| CCOC(=O)C1(Cc2ccccc2)CCN(Cc2cn(CC(=O)OC)c3ccccc23)CC1 | 17.8 µM [falling, partial curve, poor fit] |  |
| CSCc1nc2scc(-c3ccccc3)c2c(=O)[nH]1 | 3.98 µM [rising, full curve, poor fit] |  |

| SMILES | AC50 [1] | AC50 [2] |
| --- | --- | --- |
| O=C(COc1ccc(Cl)cc1Cl)NN1C(=O)/C(=C\c2ccc(Cl)cc2)SC1=S | 0.355 µM [rising, full curve, poor fit] |  |
| O=[N+]([O-])c1ccc(O)c(/C=N/n2cnc3ccccc32)c1 | 0.731 µM [rising, full curve, poor fit] |  |
| CCOc1c(Br)cc(CNc2ccc3c(c2)OCCO3)cc1OC | 11.6 µM [rising, partial curve, poor fit] | 13 µM [falling, partial curve, poor fit] |
| CC1CCN(CC(=O)Nc2ccccc2Sc2ccccc2)CC1 | 18.4 µM [rising, partial curve, poor fit] |  |
| COc1cccc(NC(=O)NCc2c(-c3ccccc3)noc2C)c1 | 15.8 µM [falling, single point] |  |
| COc1ccc(N2C(=O)C(Cl)=C(Nc3ccccc3O)C2=O)cc1 | 13 µM [falling, partial curve, poor fit] |  |
| O=C(NCc1ccc(N2CCCC2=O)cc1)c1ccc(F)cc1 | 15.8 µM [rising, single point] |  |
| COc1cc2nc(-c3ccc(Br)o3)oc(=O)c2cc1OC | 6.31 µM [falling, partial curve, poor fit] |  |
| CN(CC(=O)Nc1sccc1C(N)=O)S(=O)(=O)c1ccc(Cl)cc1 | 18.4 µM [rising, partial curve, poor fit] |  |
| Cc1cc(C)n(-c2ccc(-n3ccnc3)nn2)n1 | 8.91 µM [falling, partial curve, poor fit] |  |
| CCc1ccc([C@@H]2CC=C(C(=O)O)[C@H](c3ccccc3)N2S(=O)(=O)c2ccc(C)cc2)cc1 | 20.6 µM [falling, single point] |  |
| COc1ccc(C(=O)N/N=C/c2c(C)[nH]c(=O)[nH]c2=O)cc1 | 20 µM [falling, partial curve, poor fit] |  |
| Cc1c(NC(=O)c2cccs2)cccc1-c1nc2ccccc2s1 | 20.6 µM [falling, partial curve] | 18.4 µM [rising, partial curve, poor fit] |
| N#CC(C#N)=C1C(=O)N(CCN2CCCCC2)c2ccccc21 | 3.16 µM [falling, partial curve, poor fit] |  |
| Cc1ccc(Cl)cc1NC(=O)c1cc2ccccc2cc1O | 6.31 µM [falling, full curve] |  |
| COC(=O)c1cccc(NC(=O)CN2CCN(Cc3ccccc3)CC2)c1 | 5.8 µM [falling, full curve, poor fit] |  |
| Cc1[nH]nc(C(F)(F)F)c1CCC(=O)NC1CCCCCC1 | 0.82 µM [rising, partial curve, poor fit] |  |
| O=C(CSc1n[nH]c(-c2ccc(Br)cc2)n1)NC1CCCC1 | 0.517 µM [rising, full curve, poor fit] |  |
| Cc1cc(OCC(=O)NC(C)C)cc(C)c1Cl | 8.2 µM [rising, partial curve, poor fit] |  |
| O=C(CSc1nnc(-c2ccccc2)c(-c2ccccc2)n1)N1CCOCC1 | 0.146 µM [falling, full curve, poor fit] |  |
| CCn1nc(C)c(NS(=O)(=O)c2ccc(C)cc2)c1C | 23.1 µM [rising, single point] |  |

Some of these compounds in order of molar mass, smallest number first:

| SMILES | AC50 [1] | AC50 [2] |
| --- | --- | --- |
| Cc1ccc(Cl)cc1NC(=O)c1cc2ccccc2cc1O | 6.31 µM [falling, full curve] |  |
| COc1ccc(N2C(=O)C(Cl)=C(Nc3ccccc3O)C2=O)cc1 | 13 µM [falling, partial curve, poor fit] |  |
| O=C(CSc1n[nH]c(-c2ccc(Br)cc2)n1)NC1CCCC1 | 0.517 µM [rising, full curve, poor fit] |  |

Carrying on:

| SMILES | AC50 [1] | AC50 [2] |
| --- | --- | --- |
| CC(=O)c1ccc(N2CCN(C(=O)c3cc(-c4ccncc4)nc4ccc(Br)cc34)CC2)cc1 | 0.562 µM [falling, partial curve, poor fit] |  |
| O=C(Nc1ccccc1)C1CCCN1S(=O)(=O)c1cccs1 (centres undefined) | 9.2 µM [falling, partial curve, poor fit] |  |
| CCc1c(C)sc(NC(=O)c2ccc(Br)o2)c1C(=O)OC | 23.1 µM [rising, single point] |  |
| CCCNC(=O)c1ccc(N(Cc2ccccc2)S(C)(=O)=O)cc1 | 0.92 µM [falling, partial curve, poor fit] |  |
| O=C(Nc1nnc(-c2ccc(Cl)cc2)o1)c1cccc(N2C(=O)CCC2=O)c1 | 5.17 µM [falling, full curve] |  |
| O=C(O)CC(CC(=O)Nc1ccc(-n2ccc(C(F)(F)F)n2)cc1)c1ccccc1 (centres undefined) | 3.55 µM [rising, partial curve, poor fit] |  |
| Cc1ccc(S(=O)(=O)C(CNS(=O)(=O)c2cc(F)ccc2F)c2cccs2)cc1 (centres undefined) | 0.2 µM [falling, full curve, poor fit] |  |
| Cc1cc(C(=O)Nc2sc3c(c2C#N)CCC(C)C3)cs1 (centres undefined) | 0.82 µM [rising, full curve] |  |
| Cc1n[nH]c(=O)c2c(NC(=O)CSc3nc4ccccc4c(=O)n3-c3ccc(OC(F)F)cc3)oc(C)c12 | 18.4 µM [falling, partial curve] |  |
| CC(=O)Nc1cc(NC(C)=O)cc(C(=O)N2CCCC3CCCCC32)c1 (centres undefined) | 0.708 µM [rising, full curve, poor fit] |  |
| COc1ccc(Cl)cc1NC(=O)CSc1nnc(CNC(=O)c2ccco2)o1 | 35.5 µM [rising, single point] |  |
| NNC(=O)c1ccc(Cl)cc1Cl | 18.4 µM [falling, partial curve, poor fit] |  |
| Cn1c(=O)[nH]c(=O)c2c1nc(NC1CCCCC1)n2CCO | 11.2 µM [rising, partial curve, poor fit] |  |
| CCOc1c(Cl)cc(CNc2ccc(N3CCCC3)cc2)cc1OC |  | 28.2 µM [falling, single point] |
| O=C(CSc1nc(=O)n(Cc2ccccn2)c2c1CCC2)Nc1ccccc1 | 35.5 µM [falling, partial curve, poor fit] |  |
| CC1=C/C(=N\S(=O)(=O)c2ccccc2)C(C(C)C)=CC1=O | 8.91 µM [falling, partial curve, poor fit] |  |
| COCCNC(=O)Cn1nc(C)c2ccccc2c1=O | 0.112 µM [falling, full curve, poor fit] |  |
| COc1ccc(CCC(=O)NC2CC(=O)N(c3ccc(F)cc3)C2)cc1 (centres undefined) | 8.91 µM [rising, partial curve, poor fit] |  |
| O=C(NCCc1c[nH]c2ccccc12)c1ccc(F)cc1F | 3.55 µM [falling, partial curve, poor fit] |  |
| COc1ccccc1N=C1SC(C)CN1C(=O)C1CCC1 (centres undefined) | 2.82 µM [falling, partial curve, poor fit] |  |
